Experimental data from US20020069423A1 (priority 2000, published 2002).
“Also recorded” adds a separate entry of the source. For at least one compound, name, drawing or mass did not settle the structure.

Key:
[1] = tested on: human and rat diploid fibroblasts; settings: cited from earlier work
[2] = tested on: BFF cells transfected with pPNT; format: cell-based, bovine
normal rat diploid cells = settings: cited from earlier work
[3] = tested on: untransfected bovine fetal fibroblasts (BFF cells); format: cell-based

SMILES: CN[C@@H]1[C@@H](O)[C@@H](O[C@@H]2[C@@H](O)[C@H](O[C@H]3O[C@H]([C@@H](C)O)[C@@H](O)[C@H](O)[C@H]3N)[C@@H](N)C[C@H]2N)OC[C@]1(C)O [G418, geneticin (G418)]
- amount of G418 added to the culture for efficient selection [1]: 1 to 10 mg/mL
- growth of pPNT-transfected BFF cells [2]: continued to grow at reduced rates
- mortality of pPNT-transfected BFF cells [2]: No mortality
- killing of cells transfected with a normal neo gene (normal rat diploid cells): 80%
- cell proliferation of untransfected BFF cells in the first few days after drug selection was begun [3]: reduced rate of cell proliferation
- days of drug selection required to kill the untransfected BFF cells [3]: Ten
- growth of untransfected BFF cells after onset of drug selection [3]: continued to grow vigorously; also recorded: grew at a reduced rate
- mortality of untransfected BFF cells [3]: total mortality
- survival of untransfected BFF cells [3]: only a small number of untransfected cells were surviving
